Measured values: article PMC3534531
These are yes or no findings as the source states them, for the method shown. Binding calls can cover weak binding; strength is not graded here.

Target: type III secretion system protein fliF CPn0860 (Chlamydia pneumoniae)
Experiment: two-hybrid; ORFeome-wide library screen: bait in pBD-Gate2 (GAL4 DNA-binding domain), pooled Cpn ORFeome prey library in pAD-Gate2, co-transformed into S. cerevisiae AH109; selection on SD/-trp-leu-ade-his, at least 4 days at 28°C; recovered preys retested with the bait or empty pBD-Gate2 and sequenced

B1: type III Secretion protein fliN CPn0704 (protein, UniProt A0ABN3YRD3 1-371)
chain: MAVAADSSASWLKSRNNFLSSLGKTEEQVAAPEFPKELCQHKIREKFRLEDVQVSIKFRGSITAVEATKEFGVHLLIQPMVVQPWEVENLLFLTSEEDLQELMVAVFDDASLASYFYEKDKLLGFHYYFVAEACKLFEELQWVPSLSAKVGGDAIFTATSLQGSFQVVDISLRLDGKNVRCRLLLPEDTFQSCQKFFSGLHDESDLHNIDQTQQISLSVEVGYSQLTQEEWHQVVPGSFIMLDSCLYDPETEESGALLTVQKHQFFGGRFLTPSSGEFKITSYPNLTHEDPPLPENPQASAAPLPGYSRLVVEVARYSLAVSEFIKLNLGSILSLGNHPAYGVDIILDGAKVGRGEIIALGDVLGIRVLEV
  binding: binds
